Test results published in PMC9634073.
Results are given in words; binding and its absence hold for the method and conditions named. In cells and extracts the contact can be indirect. Some entries that bind do so weakly or less than the wild type. Where a sequence is shown, tags or fusion partners need not be part of it.

Chains of the proteins cited; added tags and fusions are not shown.
UniProt P25696: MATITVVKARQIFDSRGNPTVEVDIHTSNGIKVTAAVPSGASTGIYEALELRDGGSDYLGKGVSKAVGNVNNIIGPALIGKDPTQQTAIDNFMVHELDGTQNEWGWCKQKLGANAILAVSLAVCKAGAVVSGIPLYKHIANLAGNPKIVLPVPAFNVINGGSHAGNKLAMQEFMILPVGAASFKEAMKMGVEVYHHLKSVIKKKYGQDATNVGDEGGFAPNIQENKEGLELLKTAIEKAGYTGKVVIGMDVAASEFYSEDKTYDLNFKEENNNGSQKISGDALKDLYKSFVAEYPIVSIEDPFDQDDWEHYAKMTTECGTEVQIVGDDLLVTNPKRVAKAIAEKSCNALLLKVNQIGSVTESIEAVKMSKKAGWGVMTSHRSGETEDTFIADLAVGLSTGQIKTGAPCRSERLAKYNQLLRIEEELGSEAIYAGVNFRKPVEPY

Key:
[1] = biological target: T1, Glyceraldehyde-3-phosphate dehydrogenase GAPA1, chloroplastic, fused to cLuc (Arabidopsis thaliana) (UniProt P25856); assay: split reporter; luciferase complementation assay (LCA); pairs of Agrobacterium GV3101 strains cotransformed into four-week N. benthamiana leaves; 21°C, 24 h dark then 48 h light; signals detected with CCD
T1 sequence: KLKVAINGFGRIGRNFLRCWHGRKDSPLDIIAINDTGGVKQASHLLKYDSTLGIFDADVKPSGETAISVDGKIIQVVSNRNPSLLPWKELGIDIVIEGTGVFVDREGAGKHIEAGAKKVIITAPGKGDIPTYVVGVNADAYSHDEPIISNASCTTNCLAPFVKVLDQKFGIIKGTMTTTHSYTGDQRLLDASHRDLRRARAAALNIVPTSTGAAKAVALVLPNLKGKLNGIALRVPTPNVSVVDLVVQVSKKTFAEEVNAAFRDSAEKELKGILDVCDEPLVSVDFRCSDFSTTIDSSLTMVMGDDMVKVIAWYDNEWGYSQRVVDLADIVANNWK

[2] = biological target: T2, Glyceraldehyde-3-phosphate dehydrogenase GAPB, chloroplastic, fused to cLuc (Arabidopsis thaliana) (UniProt P25857); assay: as above
T2 sequence: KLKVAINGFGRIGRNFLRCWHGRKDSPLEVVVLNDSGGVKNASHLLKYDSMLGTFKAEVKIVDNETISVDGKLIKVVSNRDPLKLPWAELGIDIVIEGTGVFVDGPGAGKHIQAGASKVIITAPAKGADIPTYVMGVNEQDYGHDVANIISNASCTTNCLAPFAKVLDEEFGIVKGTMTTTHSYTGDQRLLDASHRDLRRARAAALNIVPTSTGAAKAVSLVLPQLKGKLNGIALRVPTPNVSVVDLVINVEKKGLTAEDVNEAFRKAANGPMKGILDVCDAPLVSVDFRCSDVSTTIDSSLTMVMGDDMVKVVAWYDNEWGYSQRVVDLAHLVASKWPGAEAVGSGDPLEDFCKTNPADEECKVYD

- binding [1]: binds
- binding [2]: binds
Substance: AtENO2 (enolase 2) fused to nLuc (from UniProt P25696 1-444) (enzyme)
